Results from US11723948B2, “Method for treating and prognosing cancer” (INSERM (INSTITUT NATIONAL DE LA SANTE ET DE LA RECHERCHE …, priority 2015, dated 2023).
For at least one compound, name, drawing or mass did not settle the structure.

System: PCTC-GBM glioma cells having high level of DNMT3A/ISGF3γ interactions
Experiment: Established subcutaneous glioma tumors in swiss nude mice
Type: in vivo
Conditions: treatment from tumor volume 100 mm^3, after 3 weeks of treatment; FIG. 3B
Method: A. Design of the experiment. […] Then, mice were treated with indicated treatment. D: day, w: week, it: intra-tumoral, ip: Intraperitoneal.
B. Graph illustrates the impact of the 4 considered treatments on tumor weight of established tumors. Open circles represent mice. Black circles represent the average±standard deviation obtained for each treatment. p values were obtained by performing a t test.
Cultured cells were harvested by trypsinization, washed and resuspended in saline buffer. Cell suspensions were injected s.c. as 2.106 cells in 0.05 ml of PBS with equal volume of matrigel matrix (Becton Dickinson, France) in the flank of 7/8-week-old Nude NMRI-nu female mice (Janvier, France). After tumor establishment, mice were treated with temozolomide and/or peptides via intra-tumor injection (it). To obtain tumor weigh, each tumor was surgically removed and is weighed. All experimental procedures using animals were realized in accordance with the guidelines of Institutional Animal Care and the French National Committee of Ethics.
Standard anti-GBM treatment using temozolomide as chemotherapeutic agent, we next investigated the effect of a treatment associating P1 peptide with TMZ in a swiss nude mice model of established tumors.

Cn1nnc2c(C(N)=O)ncn2c1=O [TMZ, temozolomide, reference compound]
tumor growth (tumor weight/volume) of established tumors: inefficient to limit tumor growth
